PubChem BioAssay AID1508588 | Peter MacCallum Cancer Centre – 2020
The deposit covers about 18,000 reagents; this is a part drawn at random. 790 of all reagents (4.4%) count as active. 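Calls rest on a combination of fold-change classes in drug and vehicle arms, not all shown here.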 The numbers tell different reagents against one gene apart. Reagent sequences are not shown.

Aim: 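Which gene losses make BRAF-mutant melanoma cells more responsive to vemurafenib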 (primary screen)
Cells: human WM266.4 melanoma cells (BRAF V600 mutant)
Knock-down reagent: siRNA pool against human genes, 40 nM
Timing: 96 h from transfection to read-out
Conditions: vemurafenib 300 nM (about IC25), added 48 h after transfection, for 48 h; comparison arm got DMSO vehicle only
Read-out: 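Cell gain (DAPI nuclei at end minus before drug, mean of two replicates) and medium lactate by absorbance per cell, both as ratio to non-targeting siRNA, also grouped into fold-change classes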
Scale: cell gain with vemurafenib: higher = more cell gain than with non-targeting siRNA; lactate per cell with vemurafenib: higher = more lactate made per cell
Hit rule: 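Enhancement is called by pairing each knock-down's vehicle-arm and drug-arm fold-change classes for viability or glycolysis; which class combinations qualify is not given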
Calls: active = enhances vemurafenib effect; inactive = no enhancement seen

| gene symbol | pool no. | cell gain with vemurafenib | lactate per cell with vemurafenib | activity call |
| --- | --- | --- | --- | --- |
| OR8U9 (GeneID 504190) | 1 | -0.15 | 0.26 | inactive |
| NPM3 (GeneID 10360) | 1 | 0.55 | 0.64 | inactive |
| OR10G9 (GeneID 219870) | 1 | 0.59 | 1.85 | inactive |
| ASF1A (GeneID 25842) | 1 | 0.94 | 0.42 | inactive |
| SLC9A7 (GeneID 84679) | 1 | 0.46 | 0.86 | inactive |
| RPTOR (GeneID 57521) | 1 | 0.62 | 1 | inactive |
| IL21 (GeneID 59067) | 1 | 0.87 | 0.82 | inactive |
| TBR1 (GeneID 10716) | 1 | 0.3 | 1.59 | inactive |
| PPP6R2 (GeneID 9701) | 1 | 0.58 | 0.78 | inactive |
| AGXT (GeneID 189) | 1 | 0.17 | 2.04 | inactive |
| ATP8B1 (GeneID 5205) | 1 | 0.38 | 1.94 | inactive |
| SMC4 (GeneID 10051) | 1 | 0.39 | 1.03 | inactive |
| RLBP1 (GeneID 6017) | 1 | 0.88 | 1.5 | inactive |
| HDC (GeneID 3067) | 1 | 0.45 | 0.92 | inactive |
| LINGO4 (GeneID 339398) | 1 | 0.11 | 1.38 | inactive |
| GBGT1 (GeneID 26301) | 1 | 0.66 | 0.82 | inactive |
| SULT1A3 (GeneID 6818) | 1 | 0.84 | 1.31 | inactive |
| SYDE1 (GeneID 85360) | 1 | 0.76 | 1.26 | inactive |
| EHD3 (GeneID 30845) | 1 | 0.68 | 0.96 | inactive |
| RBMS1 (GeneID 5937) | 1 | 0.33 | 0.57 | inactive |
| CEACAM8 (GeneID 1088) | 1 | 0.51 | 0.52 | inactive |
| TRAIP (GeneID 10293) | 1 | 1.18 | 1.02 | inactive |
| CDK2 (GeneID 1017) | 1 | 0.38 | 0.57 | inactive |
| C5 (GeneID 727) | 1 | 0.8 | 0.98 | inactive |
| LRRC45 (GeneID 201255) | 1 | 0.55 | 0.66 | inactive |
| ELF1 (GeneID 1997) | 1 | 0.39 | 1.4 | inactive |
| MARCHF4 (GeneID 57574) | 1 | 1.1 | 0.83 | inactive |
| PKD1L1-AS1 (GeneID 80099) | 1 | 0.58 | 0.98 | inactive |
| DHFR (GeneID 1719) | 1 | 0.36 | 0.84 | inactive |
| BANK1 (GeneID 55024) | 1 | 0.83 | 0.8 | inactive |
| FNDC8 (GeneID 54752) | 1 | 0.32 | 2.02 | inactive |
| GPR63 (GeneID 81491) | 1 | 0.38 | 0.48 | active |
| IFT88 (GeneID 8100) | 1 | 0.82 | 0.63 | inactive |
| GPR68 (GeneID 8111) | 1 | 0.48 | 0.7 | inactive |
| NRBF2 (GeneID 29982) | 1 | 0.65 | 1.15 | inactive |

11 entries from above, sorted by “lactate per cell with vemurafenib”, high to low:
| gene symbol | pool no. | cell gain with vemurafenib | lactate per cell with vemurafenib | activity call |
| --- | --- | --- | --- | --- |
| AGXT (GeneID 189) | 1 | 0.17 | 2.04 | inactive |
| ATP8B1 (GeneID 5205) | 1 | 0.38 | 1.94 | inactive |
| TBR1 (GeneID 10716) | 1 | 0.3 | 1.59 | inactive |
| RLBP1 (GeneID 6017) | 1 | 0.88 | 1.5 | inactive |
| LINGO4 (GeneID 339398) | 1 | 0.11 | 1.38 | inactive |
| SULT1A3 (GeneID 6818) | 1 | 0.84 | 1.31 | inactive |
| SYDE1 (GeneID 85360) | 1 | 0.76 | 1.26 | inactive |
| SMC4 (GeneID 10051) | 1 | 0.39 | 1.03 | inactive |
| HDC (GeneID 3067) | 1 | 0.45 | 0.92 | inactive |
| GBGT1 (GeneID 26301) | 1 | 0.66 | 0.82 | inactive |
| PPP6R2 (GeneID 9701) | 1 | 0.58 | 0.78 | inactive |

Additional entries follow:
| gene symbol | pool no. | cell gain with vemurafenib | lactate per cell with vemurafenib | activity call |
| --- | --- | --- | --- | --- |
| ECH1 (GeneID 1891) | 1 | 0.48 | 0.96 | inactive |
| C1orf141 (GeneID 400757) | 1 | 0.73 | 0.66 | inactive |
| SUZ12 (GeneID 23512) | 1 | 0.19 | 0.4 | active |
| TRAK2 (GeneID 66008) | 1 | 0.38 | 1.12 | inactive |
| CAMK2G (GeneID 818) | 1 | 1.01 | 0.49 | inactive |
| VAT1L (GeneID 57687) | 1 | 0.26 | 1.27 | inactive |
| WDR62 (GeneID 284403) | 1 | 0.64 | 0.74 | inactive |
| SPINK4 (GeneID 27290) | 1 | -0.09 | 1.28 | inactive |
| TIGD2 (GeneID 166815) | 1 | 1.11 | 0.38 | inactive |
| TAS2R19 (GeneID 259294) | 1 | 0.75 | 0.44 | inactive |
| TRIM43B (GeneID 653192) | 1 | 1 | 0.82 | inactive |
| CLK1 (GeneID 1195) | 1 | 0.96 | 1.03 | inactive |
| CHRNA5 (GeneID 1138) | 1 | 0.56 | 0.56 | inactive |
| CYP2C19 (GeneID 1557) | 1 | 0.6 | 0.81 | inactive |
| ARPC1B (GeneID 10095) | 1 | 0.6 | 1.23 | inactive |
| SPANXD (GeneID 64648) | 1 | -0.07 | 1.08 | inactive |
| SPANXD (GeneID 64648) | 2 | -0.11 | 1.25 | inactive |
| MTMR3 (GeneID 8897) | 1 | 0.35 | 1.37 | inactive |
| MCF2L2 (GeneID 23101) | 1 | 0.64 | 0.98 | inactive |
| DBF4B (GeneID 80174) | 1 | 0.87 | 0.62 | inactive |
| NAV1 (GeneID 89796) | 1 | 0.2 | 0.6 | inactive |
| FAM89A (GeneID 375061) | 1 | 0.13 | 2.15 | inactive |
| DNAAF2 (GeneID 55172) | 1 | 0.91 | 1.19 | inactive |
| ZFP14 (GeneID 57677) | 1 | 0.53 | 1.07 | inactive |
| KLF3 (GeneID 51274) | 1 | 0.42 | 0.88 | inactive |
| IL17RB (GeneID 55540) | 1 | 0.55 | 0.42 | inactive |
| CHST9 (GeneID 83539) | 1 | 0.11 | 1.22 | inactive |
| TRAPPC2 (GeneID 6399) | 1 | 0.66 | 0.59 | active |
| ERICH6 (GeneID 131831) | 1 | 0.29 | 0.3 | inactive |
| CLIC5 (GeneID 53405) | 1 | 0.32 | 2.19 | inactive |
| DNAAF8 (GeneID 146562) | 1 | 0.51 | 0.39 | inactive |
| FDCSP (GeneID 260436) | 1 | 0.8 | 0.26 | inactive |
| GPBAR1 (GeneID 151306) | 1 | 0.85 | 0.68 | inactive |
| USP50 (GeneID 373509) | 1 | 0.64 | 1.18 | inactive |
| TMEM87B (GeneID 84910) | 1 | 0.83 | 0.64 | inactive |
| GCOM1 (GeneID 145781) | 1 | 0.54 | 0.83 | inactive |
| PAGE3 (GeneID 139793) | 1 | 0.18 | 3.16 | inactive |
| PCDHB12 (GeneID 56124) | 1 | 0.97 | 0.62 | inactive |
| ARHGEF10L (GeneID 55160) | 1 | 0.77 | 0.44 | inactive |
| SUMO2 (GeneID 6613) | 1 | 0.69 | 0.74 | inactive |
| SLC25A17 (GeneID 10478) | 1 | 0.28 | 1.17 | inactive |
| TMEM158 (GeneID 25907) | 1 | 1.11 | 0.88 | inactive |
| CPNE8 (GeneID 144402) | 1 | 0.93 | 0.63 | inactive |
| ARL4D (GeneID 379) | 1 | 0.38 | 1.83 | inactive |
| DCAF12L2 (GeneID 340578) | 1 | 0.73 | 0.52 | inactive |
| SLC16A13 (GeneID 201232) | 1 | 0.62 | 0.6 | inactive |
| TMEM252 (GeneID 169693) | 1 | 0.73 | 0.72 | inactive |
| SGCD (GeneID 6444) | 1 | 0.63 | 0.84 | inactive |
| LY6S-AS1 (GeneID 286122) | 1 | -0.02 | 2.12 | inactive |
